Data on three molecules can be found in PMC4595766.

Experiment in all cases: co-IP; extract of exponentially growing fission yeast cells (sgf73+ background) in Buffer 1 (1 M Tris-HCl pH 8.0, 167 mM NaCl, 1.2 mM EDTA, 1% TritonX-100, 0.1% Na-deoxycholate) with protease inhibitors; anti-FLAG M2 magnetic beads, or anti-HA antibody then protein A/G agarose, 6 h; Western blot; Ago1-Tas3 also tested in sgf73Δ cells (disrupted to a much lesser extent)
Assay [1] concerns the target T1, Chp1-3FLAG (fission yeast) (UniProt Q10103).
T1 sequence: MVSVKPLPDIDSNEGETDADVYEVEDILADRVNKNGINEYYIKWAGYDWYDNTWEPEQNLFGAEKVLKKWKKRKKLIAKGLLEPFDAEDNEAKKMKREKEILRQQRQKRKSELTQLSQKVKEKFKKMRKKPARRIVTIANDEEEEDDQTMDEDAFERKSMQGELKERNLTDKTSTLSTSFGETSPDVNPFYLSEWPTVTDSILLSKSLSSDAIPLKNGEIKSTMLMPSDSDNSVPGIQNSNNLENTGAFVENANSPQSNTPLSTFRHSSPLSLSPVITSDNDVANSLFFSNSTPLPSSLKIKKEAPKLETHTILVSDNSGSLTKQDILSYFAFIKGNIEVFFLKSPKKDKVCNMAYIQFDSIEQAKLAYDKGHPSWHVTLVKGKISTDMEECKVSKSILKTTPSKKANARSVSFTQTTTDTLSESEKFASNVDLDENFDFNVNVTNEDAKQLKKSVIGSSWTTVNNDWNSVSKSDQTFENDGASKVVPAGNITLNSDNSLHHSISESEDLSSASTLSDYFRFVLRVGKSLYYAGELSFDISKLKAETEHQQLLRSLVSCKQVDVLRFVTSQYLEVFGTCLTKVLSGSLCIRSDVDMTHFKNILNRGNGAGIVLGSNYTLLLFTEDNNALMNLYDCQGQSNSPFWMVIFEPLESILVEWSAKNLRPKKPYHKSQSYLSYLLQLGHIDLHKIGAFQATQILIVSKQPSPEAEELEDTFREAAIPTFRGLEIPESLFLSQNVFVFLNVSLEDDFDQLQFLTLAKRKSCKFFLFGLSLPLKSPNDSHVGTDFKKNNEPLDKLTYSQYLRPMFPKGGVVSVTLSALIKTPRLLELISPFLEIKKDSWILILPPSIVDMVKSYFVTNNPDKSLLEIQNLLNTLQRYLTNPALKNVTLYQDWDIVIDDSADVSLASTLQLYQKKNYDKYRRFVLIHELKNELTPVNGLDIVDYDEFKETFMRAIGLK

Assay [2] has as its target T2, Sgf73 with a C-terminal triple HA tag (Sgf73-3HA) (fission yeast) (UniProt O94397).
T2 sequence: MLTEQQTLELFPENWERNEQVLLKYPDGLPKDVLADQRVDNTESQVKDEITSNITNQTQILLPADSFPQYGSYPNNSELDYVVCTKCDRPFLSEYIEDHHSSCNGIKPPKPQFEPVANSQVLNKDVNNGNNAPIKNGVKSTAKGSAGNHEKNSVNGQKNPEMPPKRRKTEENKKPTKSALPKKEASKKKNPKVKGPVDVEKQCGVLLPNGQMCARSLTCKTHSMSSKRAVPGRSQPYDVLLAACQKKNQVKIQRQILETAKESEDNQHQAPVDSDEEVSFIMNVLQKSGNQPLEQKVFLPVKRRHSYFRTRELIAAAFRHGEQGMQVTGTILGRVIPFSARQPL

Assay [3] deals with T3, Tas3-3FLAG (fission yeast) (UniProt O94687).
T3 sequence: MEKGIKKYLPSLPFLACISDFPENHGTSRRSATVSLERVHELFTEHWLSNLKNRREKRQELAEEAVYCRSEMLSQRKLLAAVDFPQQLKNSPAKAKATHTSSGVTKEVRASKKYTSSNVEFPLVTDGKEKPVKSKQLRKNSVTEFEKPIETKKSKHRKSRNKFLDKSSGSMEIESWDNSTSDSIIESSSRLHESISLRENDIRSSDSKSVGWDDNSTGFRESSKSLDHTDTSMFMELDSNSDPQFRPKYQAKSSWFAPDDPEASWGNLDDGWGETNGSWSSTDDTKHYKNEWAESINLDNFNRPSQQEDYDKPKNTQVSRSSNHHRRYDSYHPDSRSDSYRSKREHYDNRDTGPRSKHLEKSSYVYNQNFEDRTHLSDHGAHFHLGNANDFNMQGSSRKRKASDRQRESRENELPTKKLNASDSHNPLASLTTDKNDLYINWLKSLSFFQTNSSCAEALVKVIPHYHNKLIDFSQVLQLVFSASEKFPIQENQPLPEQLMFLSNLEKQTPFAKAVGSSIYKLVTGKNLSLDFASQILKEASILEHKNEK

No constants are given. Whether binding was seen depends on the method and setting. In cells and extracts the contact can be indirect. Some entries that bind do so weakly or less than the wild type. Tags and fused reporters may be left off the sequences shown.

B1: Ago1 (Argonaute) (protein, UniProt O74957 1-834)
chain: MSYKPSSEIALRPGYGGLGKQITLKANFFQIISLPNETINQYHVIVGDGSRVPRKQSQLIWNSKEVKQYFGSSWMNSVYDGRSMCWSKGDIADGTIKVNIGSESHPREIEFSIQKSSKINLHTLSQFVNSKYSSDPQVLSSIMFLDLLLKKKPSETLFGFMHSFFTGENGVSLGGGVEAWKGFYQSIRPNQGFMSVNVDISSSAFWRNDSLLQILMEYTDCSNVRDLTRFDLKRLSRKFRFLKVTCQHRNNVGTDLANRVYSIEGFSSKSASDSFFVRRLNGEEQKISVAEYFLENHNVRLQYPNLPCILVKNGAMLPIEFCFVVKGQRYTAKLNSDQTANMIRFAVQRPFERVQQIDDFVHQMDWDTDPYLTQYGMKIQKKMLEVPARVLETPSIRYGGDCIERPVSGRWNLRGKRFLDPPRAPIRSWAVMCFTSTRRLPMRGIENFLQTYVQTLTSLGINFVMKKPPVLYADIRGSVEELCITLYKKAEQVGNAPPDYLFFILDKNSPEPYGSIKRVCNTMLGVPSQCAISKHILQSKPQYCANLGMKINVKVGGINCSLIPKSNPLGNVPTLILGGDVYHPGVGATGVSIASIVASVDLNGCKYTAVSRSQPRHQEVIEGMKDIVVYLLQGFRAMTKQQPQRIIYFRDGTSEGQFLSVINDELSQIKEACHSLSPKYNPKILVCTTQKRHHARFFIKNKSDGDRNGNPLPGTIIEKHVTHPYQYDFYLISHPSLQGVSVPVHYTVLHDEIQMPPDQFQTLCYNLCYVYARATSAVSLVPPVYYAHLVSNLARYQDVTADDTFVETSEASMDQEVKPLLALSSKLKTKMWYM
Regarding B1, the binding result in assay [1], in assay [2] and in assay [3] was “binds” in each case.

B2: Sgf73 with a C-terminal triple HA tag (Sgf73-3HA) (protein, UniProt O94397 1-344)
chain: T2 sequence
For B2, in assay [1], the binding result is given as “binds”.

B3: Chp1 (protein, UniProt Q10103 1-960)
chain: T1 sequence
Take B3: in assay [3], the binding entry is reported as “binds”.
